The data set in a line: Aqueous solubility of the compound at pH 6.8. Particulars: buffer.

This note sets out measurements from ChEMBL document CHEMBL3745705, “Discovery of Oral VEGFR-2 Inhibitors with Prolonged Ocular Retention That Are Efficacious in Models of Wet Age-Related Macular Degeneration” (J Med Chem, 2015).

Converted amounts (≈) assume the structure as drawn.

In turn, `C[C@H]1Cc2c(ncnc2Oc2ccc3c(ccn3C(=O)Nc3cc(C4(C)CC4)n[nH]3)c2)CN1` came in with a solubility of 450 µM (≈ 200 µg/mL).

Regarding `C[C@H]1Cc2c(ncnc2Oc2ccc3c(ccn3C(=O)Nc3cc(C(C)(C)C)on3)c2)CN1`, the concentration in solution (solubility) came to 126 µM (≈ 56.3 µg/mL). Compared with the last compound, the solubility is about 3.6-fold lower.
